In publication doi:10.1101/2020.09.18.303255:
Where two headings read alike, the source gives them in different places. These are yes or no findings as the source states them, for the method shown. Binding seen in cells or lysates may run through a third protein. Some binding calls cover weakened binding; strength is not graded here. Tags and fused reporters may be left off the sequences shown. One block for each molecule: values may come before it.

The chains behind the UniProt entries cited, without tags or fusion partners. Residues count along the entry.
UniProt P03886: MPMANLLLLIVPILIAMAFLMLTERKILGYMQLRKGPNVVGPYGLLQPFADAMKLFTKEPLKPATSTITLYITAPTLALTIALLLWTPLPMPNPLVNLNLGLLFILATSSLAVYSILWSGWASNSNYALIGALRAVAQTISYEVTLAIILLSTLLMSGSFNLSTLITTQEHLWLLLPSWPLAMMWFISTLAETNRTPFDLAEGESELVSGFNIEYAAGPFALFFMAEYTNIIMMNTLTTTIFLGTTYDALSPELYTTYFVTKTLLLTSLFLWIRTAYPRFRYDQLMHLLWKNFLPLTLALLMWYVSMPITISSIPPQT
UniProt P03905: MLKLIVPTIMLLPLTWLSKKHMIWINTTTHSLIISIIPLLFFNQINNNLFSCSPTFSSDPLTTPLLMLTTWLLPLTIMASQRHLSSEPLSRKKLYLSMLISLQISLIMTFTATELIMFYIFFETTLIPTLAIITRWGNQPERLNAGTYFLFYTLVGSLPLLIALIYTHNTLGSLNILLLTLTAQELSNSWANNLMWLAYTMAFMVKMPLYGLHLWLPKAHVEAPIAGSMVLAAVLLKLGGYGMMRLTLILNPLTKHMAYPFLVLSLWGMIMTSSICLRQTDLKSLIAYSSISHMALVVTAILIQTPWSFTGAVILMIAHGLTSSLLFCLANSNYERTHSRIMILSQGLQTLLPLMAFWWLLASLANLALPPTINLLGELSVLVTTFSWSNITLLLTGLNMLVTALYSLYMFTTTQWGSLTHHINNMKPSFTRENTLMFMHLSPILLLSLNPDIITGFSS
UniProt P03891: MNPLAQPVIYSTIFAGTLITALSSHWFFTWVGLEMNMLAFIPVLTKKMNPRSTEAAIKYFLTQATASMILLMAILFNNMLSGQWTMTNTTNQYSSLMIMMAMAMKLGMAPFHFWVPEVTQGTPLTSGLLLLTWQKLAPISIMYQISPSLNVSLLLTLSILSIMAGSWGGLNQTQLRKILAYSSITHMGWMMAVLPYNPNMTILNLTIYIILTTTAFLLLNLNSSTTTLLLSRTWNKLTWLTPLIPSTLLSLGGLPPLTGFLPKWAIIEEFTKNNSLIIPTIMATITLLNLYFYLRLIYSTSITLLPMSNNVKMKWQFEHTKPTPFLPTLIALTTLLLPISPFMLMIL
UniProt Q9Y375, residues 25-327: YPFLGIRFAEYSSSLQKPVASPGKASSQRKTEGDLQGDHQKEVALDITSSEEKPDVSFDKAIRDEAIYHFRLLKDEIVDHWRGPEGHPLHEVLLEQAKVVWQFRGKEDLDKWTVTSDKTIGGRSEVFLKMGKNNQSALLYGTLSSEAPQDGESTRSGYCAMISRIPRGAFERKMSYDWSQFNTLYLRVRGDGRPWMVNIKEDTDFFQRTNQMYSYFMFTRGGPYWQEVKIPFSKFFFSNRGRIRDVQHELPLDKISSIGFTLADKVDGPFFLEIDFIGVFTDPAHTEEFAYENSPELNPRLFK
UniProt O95298: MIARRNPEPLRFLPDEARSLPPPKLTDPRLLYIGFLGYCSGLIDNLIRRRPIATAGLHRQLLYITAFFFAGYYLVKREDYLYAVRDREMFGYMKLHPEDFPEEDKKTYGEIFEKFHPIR

Legend:
Test in all cases: co-IP
[1] = molecular target: T1, TMEM126A with a C-terminal Flag epitope tag (human) (UniProt Q9H061)
T1 sequence: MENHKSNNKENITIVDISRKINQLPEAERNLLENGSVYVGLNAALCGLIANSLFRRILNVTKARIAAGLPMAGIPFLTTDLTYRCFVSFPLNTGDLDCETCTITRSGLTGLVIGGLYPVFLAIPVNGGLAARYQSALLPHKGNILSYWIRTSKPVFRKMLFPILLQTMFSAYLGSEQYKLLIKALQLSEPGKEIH

[2] = molecular target: T2, TMEM126B with a Flag epitope tag (human) (UniProt Q8IUX1)
T2 sequence: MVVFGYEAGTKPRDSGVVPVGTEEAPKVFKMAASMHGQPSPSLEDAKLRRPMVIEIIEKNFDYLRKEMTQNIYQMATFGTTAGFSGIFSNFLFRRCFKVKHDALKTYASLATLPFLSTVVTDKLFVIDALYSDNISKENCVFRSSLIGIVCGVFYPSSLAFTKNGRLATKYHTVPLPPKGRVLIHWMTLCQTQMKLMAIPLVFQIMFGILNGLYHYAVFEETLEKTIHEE

[3] = molecular target: T2, TMEM126B with a Flag epitope tag (human); remark: listed apart in the source

Molecule: ND1 (from UniProt P03886 1-318)
binding [1]: binds weakly

Molecule: mtDNA-encoded complex I subunit ND4 (from UniProt P03905 1-459)
binding [1]: binds

B1: ECSIT (protein, UniProt Q9BQ95 49-431)
chain: SSEQSLVPSPPEPRQRPTKALVPFEDLFGQAPGGERDKASFLQTVQKFAEHSVRKRGHIDFIYLALRKMREYGVERDLAVYNQLLNIFPKEVFRPRNIIQRIFVHYPRQQECGIAVLEQMENHGVMPNKETEFLLIQIFGRKSYPMLKLVRLKLWFPRFMNVNPFPVPRDLPQDPVELAMFGLRHMEPDLSARVTIYQVPLPKDSTGAADPPQPHIVGIQSPDQQAALARHNPARPVFVEGPFSLWLRNKCVYYHILRADLLPPEEREVEETPEEWNLYYPMQLDLEYVRSGWDNYEFDINEVEEGPVFAMCMAGAHDQATMAKWIQGLQETNPTLAQIPVVFRLAGSTRELQTSSAGLEEPPLPEDHQEEDDNLQRQQQGQS
binding [3]: binds

Other lines, results leading:

binding [1]: binds weakly
Molecule: ND2 (from UniProt P03891 1-347)

binding [2]: binds
Molecule: NDUFAF1 (from UniProt Q9Y375 25-327)

binding [2]: binds
Molecule: NDUFC2 (from UniProt O95298 1-119)

binding [3]: binds
B2: ACAD9 (protein, UniProt Q9H845 38-621)
chain: AFAKELFLGKIKKKEVFPFPEVSQDELNEINQFLGPVEKFFTEEVDSRKIDQEGKIPDETLEKLKSLGLFGLQVPEEYGGLGFSNTMYSRLGEIISMDGSITVTLAAHQAIGLKGIILAGTEEQKAKYLPKLASGEHIAAFCLTEPASGSDAASIRSRATLSEDKKHYILNGSKVWITNGGLANIFTVFAKTEVVDSDGSVKDKITAFIVERDFGGVTNGKPEDKLGIRGSNTCEVHFENTKIPVENILGEVGDGFKVAMNILNSGRFSMGSVVAGLLKRLIEMTAEYACTRKQFNKRLSEFGLIQEKFALMAQKAYVMESMTYLTAGMLDQPGFPDCSIEAAMVKVFSSEAAWQCVSEALQILGGLGYTRDYPYERILRDTRILLIFEGTNEILRMYIALTGLQHAGRILTTRIHELKQAKVSTVMDTVGRRLRDSLGRTVDLGLTGNHGVVHPSLADSANKFEENTYCFGRTVETLLLRFGKTIMEEQLVLKRVANILINLYGMTAVLSRASRSIRIGLRNHDHEVLLANTFCVEAYLQNLFSLSQLDKYAPENLDEQIKKVSQQILEKRAYICAHPLDRTC
